The AC50 is the concentration giving half of the maximal activity seen.

The other results are listed elsewhere or left out. Further columns of the screen follow, without active or inactive calls. Compounds called inactive in the main read-out are mostly missing here. Words in brackets tell the shape of the fitted curve; partial curves, single points and poor fits give uncertain potencies.

The nature of this test: qHTS Assay for Identifying the Cell-Membrane Permeable IMPase Inhibitors. The following applies: CHO-M1 cells, IP1 accumulation, HTRF TR-FRET ratio; measured here: donor channel 620 nm AC50. (In general: qHTS replaces the single test concentration by a dilution series.)
As to `CCCn1c(=O)c2ccccc2n2c(SCC(=O)Nc3cc(C)on3)nnc12`, the concentration at half-maximal activity (AC50) is 0.0158 µM [falling, full curve, poor fit].

Take `C=CCNC(=O)c1ccc(Sc2ccccc2)c([N+](=O)[O-])c1`: the AC50 was 0.316 µM [falling, full curve, poor fit].

Regarding `O=S(=O)(Nc1ccc(N2CCCCC2)cc1)c1cccs1`, the AC50 was 0.02 µM [falling, full curve, poor fit].

For `O=S(=O)(Nc1nc2ccccc2nc1Cl)c1ccccc1`, the AC50 is 11.2 µM [rising, partial curve].

For the compound `CCN1C(=O)/C(=C2/C=Cc3cc(C)ccc3N2CC)N(C)C1=S`, the half-maximal activity concentration (AC50) is 12.6 µM [falling, single point].

With `O=C(CSc1nnc(-c2cccs2)o1)c1cccs1`, the AC50 was 20 µM [falling, partial curve, poor fit].

For `O=C(Cn1c(=O)n(Cc2ccc3c(c2)OCO3)c(=O)c2ccccc21)N1CCCc2ccccc21`, the AC50 is 31.6 µM [falling, single point].

As to `CCOC(=O)c1csc(Nc2nc3ccc(F)cc3s2)n1`, the AC50 was 3.16 µM [rising, single point].

Regarding `O=c1cc(CN2CCC3(CC2)OCCO3)c2c(ccc3ccccc32)o1`, the AC50 is 0.794 µM [falling, single point].

With `CC(C)C(NS(=O)(=O)c1cccs1)C(=O)N(C)Cc1ccccc1` (stereo not drawn), the AC50 was 12.6 µM [falling, partial curve, poor fit].

In the case of `COc1ccc(C(=O)Nc2cc(NC(=O)c3ccco3)ccc2OC)cc1Cl`, the half-maximal activity concentration (AC50) is 0.00501 µM [falling, full curve].

On to `Cc1nc(NC(=O)c2cccnc2)ccc1Br`, for which the AC50 was 1 µM [falling, full curve, poor fit].

For the compound `COc1ccc(C(=O)CSc2nnc(-c3ccc(S(=O)(=O)N4CCOCC4)cc3)o2)cc1`, the half-maximal activity concentration (AC50) is 31.6 µM [falling, single point].

Turning to `C/C(=C\c1ccccc1)CN(C)CCN(C)C`, the AC50 is 0.0631 µM [rising, full curve, poor fit].

Regarding `Cc1cc(C)n(C/C=C/Cn2nc(C)cc2C)n1`, the concentration at half-maximal activity (AC50) was 0.355 µM [rising, partial curve, poor fit].

Turning to `Cc1cccc(C(=O)NCC2CCCO2)c1` (stereo not drawn), the half-maximal activity concentration (AC50) was 35.5 µM [rising, partial curve].

As to `O=C(Nc1cccnc1)Nc1ccccn1`, the half-maximal activity concentration (AC50) is 35.5 µM [falling, single point].

Take `CCCOC(=O)C1[C@H]2C(=O)N(CC3CCCO3)C[C@]23C=C[C@H]1O3` (stereo partly drawn): the AC50 was 0.0631 µM [rising, full curve, poor fit].

Take `COc1ccc(S(=O)(=O)Nc2ccccn2)c(C)c1C`: the half-maximal activity concentration (AC50) is 12.6 µM [falling, partial curve, poor fit].

As to `Cc1cc(C(F)F)n2nc(C(=O)Nc3cccc(Cl)c3C)nc2n1`, the AC50 was 5.62 µM [falling, full curve].

On to `O=Nc1c2nc3ccccc3n(O)c-2c2ccccc12`, for which the AC50 was 0.158 µM [falling, partial curve].

On to `Cc1nc2ccccc2n2c(-c3ccccc3)c3c(=O)n(C)c(=O)n(C)c3c12`, for which the half-maximal activity concentration (AC50) is 12.6 µM [falling, partial curve, poor fit].

As for `COc1cccc(NC(=O)COc2ccc(S(=O)(=O)NC(C)C)cc2)c1`, the concentration at half-maximal activity (AC50) is 0.158 µM [falling, full curve].

For `CCOc1ccc(-n2c(=O)c3c(C)c(C)sc3n(CC(=O)NCc3ccco3)c2=O)cc1`, the concentration at half-maximal activity (AC50) was 1.58 µM [rising, full curve, poor fit].

Turning to `CCOc1cc(C2CC(=O)Nc3cc4c(cc32)OCCO4)ccc1O` (stereo not drawn), the AC50 is 0.00224 µM [rising, full curve, poor fit].

Consider `N#Cc1c(-n2cccc2)cccc1-n1cccc1`, for which the AC50 is 2.51 µM [rising, full curve, poor fit].

As for `CCOc1ccccc1CNC(=O)C1CCN(c2nc3ccccc3o2)CC1`, the AC50 was 3.16 µM [rising, full curve].

Take `O=C(O)CCCC(=O)Nc1ccccc1Br`: the AC50 is 5.01 µM [falling, single point].

As to `CN1CCC(N(C)C(=O)c2ccccc2Nc2ccc(SC(F)F)cc2)CC1`, the AC50 is 1.58 µM [rising, partial curve, poor fit].

Regarding `CCOC(=O)C1CCN(C2CC(=O)N(c3ccc(OCC)cc3)C2=O)CC1` (stereo not drawn), the AC50 was 0.631 µM [falling, full curve].

On to `CCOC(=O)c1c(C)nc(-c2ccccc2)nc1NC(=O)CC`, for which the half-maximal activity concentration (AC50) is 0.316 µM [falling, full curve].

For the compound `Cc1cc2cc3c(cc2nc1SCC(=O)O)OCCO3`, the half-maximal activity concentration (AC50) is 12.6 µM [rising, single point].

`CC(NC(=O)N(Cc1ccccc1)Cc1ccc2c(c1)OCO2)(C(F)(F)F)C(F)(F)F`: the half-maximal activity concentration (AC50) is 3.98 µM [falling, partial curve].

Regarding `Cc1ccc(OCC(=O)Nc2ccc(-c3nc4ccccc4o3)cc2)c(C)c1`, the AC50 is 31.6 µM [rising, single point].

Take `COc1cc2c(cc1NC(=O)C(C)Oc1ccccc1)oc1ccccc12` (stereo not drawn): the AC50 is 0.00447 µM [falling, full curve, poor fit].

Consider `Cn1cccc1C(=O)Nc1nccs1`, for which the concentration at half-maximal activity (AC50) is 0.01 µM [rising, full curve, poor fit].

Take `CC1(C)Cc2cccc(OCC(=O)N3CCN(S(=O)(=O)c4ccc(F)cc4)CC3)c2O1`: the AC50 is 0.501 µM [rising, full curve, poor fit].

Turning to `CCOc1cc(/C=C\c2[nH]c(=O)[nH]c(=O)c2[N+](=O)[O-])ccc1OC(C)CC` (stereo not drawn), the AC50 was 0.126 µM [falling, full curve, poor fit].

Turning to `CCn1cc(CNC(=O)c2cc(Cl)ccc2OC)c(C)n1`, the half-maximal activity concentration (AC50) is 31.6 µM [falling, single point].

Take `Cc1ccc(Cn2c(N)c(S(=O)(=O)c3cccs3)c3nc4ccccc4nc32)cc1`: the half-maximal activity concentration (AC50) is 31.6 µM [rising, partial curve, poor fit].

Turning to `Cc1cccc(-n2c(SCC(=O)N3CCCC3)nc3n[nH]c(C)c3c2=N)c1`, the half-maximal activity concentration (AC50) was 25.1 µM [rising, single point].

As for `C=C(C)Cn1c(C)cc(C)c(S(=O)(=O)c2ccccc2C)c1=O`, the AC50 was 0.0631 µM [rising, full curve, poor fit].

Take `Cc1nn(C)c(C)c1C1Nc2ccccc2C(=O)N1O` (stereo not drawn): the AC50 is 0.794 µM [falling, full curve].

These data come from PubChem BioAssay AID901 (National Center for Advancing Translational Sciences (NCATS), 2007).
